Reference: PMC5733569, “Sbp1 modulates the translation of Pab1 mRNA in a poly(A)- and RGG-dependent manner” (RNA, 2018)
Results are given in words; binding and its absence hold for the method and conditions named. Where a sequence is shown, tags or fusion partners need not be part of it.

Biological target: T1, GST-Sbp1 (S. cerevisiae) (UniProt P10080)
T1 sequence: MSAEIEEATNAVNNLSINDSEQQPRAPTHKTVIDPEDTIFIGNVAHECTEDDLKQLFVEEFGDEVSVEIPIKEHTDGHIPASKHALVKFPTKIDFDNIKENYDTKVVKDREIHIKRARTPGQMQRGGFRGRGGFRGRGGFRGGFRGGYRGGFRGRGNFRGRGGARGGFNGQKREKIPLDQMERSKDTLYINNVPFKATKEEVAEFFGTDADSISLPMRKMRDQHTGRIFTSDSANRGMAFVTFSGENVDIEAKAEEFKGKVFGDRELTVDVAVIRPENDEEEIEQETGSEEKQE
Assay: pull-down; domain mutants of Pab1 tested for binding with Sbp1 (Supplemental Fig. S5A-H); which partner was GST-tagged and whether RNA was present is not given; both purified

B1: C-terminal protein-binding domain of Pab1 (PABC) (domain or fragment, UniProt P04147 489-568)
chain: GFPRNANDNNQFYQQKQRQALGEQLYKKVSAKTSNEEAAGKITGMILDLPPQEVFPLLESDELFEQHYKEASAAYESFKK
- binding: no binding
